The values that follow come from PMC7891773.

This experiment has as its target T1, GST-mFOG1 (aa 1-45) (mouse) (UniProt O35615).
T1 sequence: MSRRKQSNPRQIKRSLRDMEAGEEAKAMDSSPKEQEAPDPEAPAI
Nature of the experiment: pull-down; 10-20 μg GST fusion on Glutathione Sepharose with 1 mg S2 cell nuclear extract or Drosophila embryo nuclear extract (TRAX); overnight at 4°C; 25 mM Hepes/KOH pH 7.6, 150 mM KCl, 0.1% NP-40; Western blot; only the target purified. Background: Immunoblotting shows a protein as a band on a membrane.

No constants are given. Whether binding was seen depends on the method and setting. Binding seen in cells or lysates may run through a third protein. Where a sequence is shown, tags or fusion partners need not be part of it.

B1: dPc (protein, UniProt P26017 1-390)
chain: MTGRGKGSKGKLGRDNATDDPVDLVYAAEKIIQKRVKKGVVEYRVKWKGWNQRYNTWEPEVNILDRRLIDIYEQTNKSSGTPSKRGIKKKEKEPDPEPESEEDEYTFTENDVDTHQATTSSATHDKESKKEKKHHHHHHHHHHIKSERNSGRRSESPLTHHHHHHHHESKRQRIDHSSSSNSSFTHNSFVPEPDSNSSSSEDQPLIGTKRKAEVLKESGKIGVTIKTSPDGPTIKPQPTQQVTPSQQQPFQDQQQAEKIASEAATQLKSEQQATPLATEAINTTPAESGAEEEEVANEEGNQQAPQVPSENNNIPKPCNNLAINQKQPLTPLSPRALPPRFWLPAKCNISNRVVITDVTVNLETVTIRECKTERGFFRERDMKGDSSPVA
As for B1, the binding entry is “no binding”.

B2: dCHD3 (enzyme, UniProt O16102 1-892)
chain: MSSKRGADPDWKTPGKASKDKRPKTNAKKQKFRDEEYCKVCSDGGDLLCCDSCPSVYHRTCLSPPLKSIPKGDWICPRCIPLPGKAEKILSWRWALDRSVELRTSKGEKRREYFIKWHGMSYWHCEWIPEGQMLLHHASMVASFQRRSDMEEPSLEELDDQDGNLHERFYRYGIKPEWLLVQRVINHSEEPNGGTMYLVKWRELSYNDSSWERESDSIPGLNQAIALYKKLRSSNKGRQRDRPAPTIDLNKKYEDQPVFLKEAGLKLHPFQIEGVSWLRYSWGQGIPTILADEMGLGKTIQTVVFLYSLFKEGHCRGPFLISVPLSTLTNWERELELWAPELYCVTYVGGKTARAVIRKHEISFEEVTTKTMRENQTQYKFNVMLTSYEFISVDAAFLGCIDWAALVVDEAHRLRSNQSKFFRILSKYRIGYKLLLTGTPLQNNLEELFHLLNFLSSGKFNDLQTFQAEFTDVSKEEQVKRLHEILEPHMLRRLKADVLKSMPPKSEFIVRVELSSMQKKFYKHILTKNFKALNQKGGGRVCSLLNIMMDLRKCCNHPYLFPSAAEEATISPSGLYEMSSLTKASGKLDLLSKMLKQLKADNHRVLLFSQMTKMLNVLEHFLEGEGYQYDRIDGSIKGDLRQKAIDRFNDPVSEHFVFLLSTRAGGLGINLATADTVIIFDSDWNPHNDVQAFSRAHRMGQKKKVMIYRFVTHNSVEERIMQVAKHKMMLTHLVVRPGMGGMTTNFSKDELEDILRFGTEDLFKDGKSEAIHYDDKAVADLLDRTNRGIEEKESWANEYLSSFKVASYATKEDHEEHDDYNNDAENTDPFYWENLMGKSQPKLPKKQKKQSQQSQVDVESIMGKGKRIRKEIDYSNQYPSPNRATPSSIVLM
On to B2, for which the binding result is given as “no binding”.
